The values that follow are results of earlier work, collected in patent US20050288227A1, “Use of thioredoxin measurements for diagnostics and treatments” (priority 2002, published 2005).

Each structure is given as a SMILES string.

The data set concerns tumor growth. To be noted: animals; cited from earlier work.

As for `O=C(CCCCCCC(=O)Nc1ccccc1)NO` [SAHA, suberoylanilide hydroxamic acid], the “inhibition of tumor growth” value is “effective at inhibiting tumor growth”.
